± gives the standard deviation of the averaged measurements. Some of the results follow.
Compound: Nc1nc2c(ncn2[C@@H]2O[C@H](COP(=O)(O)OP(=O)(O)OP(=O)(O)O)[C@@H](O)[C@H]2O)c(=O)[nH]1 [guanosine triphosphate]
Experiment: NP40-soluble protein abundance relative to vehicle (solubility fold change) (ratio); higher = more soluble protein in presence of GTP
In short: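 In three independent experiments, Jurkat crude lysate made by Dounce homogenisation was treated for 10 min at room temperature and then 3 min at 37 °C with eight concentrations ranging from 0.1 to 10 mM. It was then solubilised with 0.8% NP40 plus benzonase for 60 min at 4 °C and ultracentrifuged. The supernatant was TMT-labelled for LC-MS/MS, and each value is the fold change against the detergent-processed vehicle for the same replicate, using vsn-normalised intensities.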

Protein sequences, listed by entry. Tags and fused reporters are not part of them. Lines headed by an entry give the natural chain unless they say otherwise; changes in a name come on top.
UniProt Q9UNW1: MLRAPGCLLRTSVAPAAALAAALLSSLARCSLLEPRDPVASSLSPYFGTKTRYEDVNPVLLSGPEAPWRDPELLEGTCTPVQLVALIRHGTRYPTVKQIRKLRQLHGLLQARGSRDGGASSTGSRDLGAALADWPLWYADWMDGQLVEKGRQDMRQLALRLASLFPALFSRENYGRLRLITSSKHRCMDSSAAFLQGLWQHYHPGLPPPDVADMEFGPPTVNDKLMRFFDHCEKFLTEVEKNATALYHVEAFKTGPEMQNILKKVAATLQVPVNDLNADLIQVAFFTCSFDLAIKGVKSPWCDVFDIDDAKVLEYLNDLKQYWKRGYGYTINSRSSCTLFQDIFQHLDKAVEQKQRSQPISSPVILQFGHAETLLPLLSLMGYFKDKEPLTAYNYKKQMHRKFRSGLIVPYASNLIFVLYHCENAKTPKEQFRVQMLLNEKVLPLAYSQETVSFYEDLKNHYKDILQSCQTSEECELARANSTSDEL
UniProt Q9UNI6, whole entry: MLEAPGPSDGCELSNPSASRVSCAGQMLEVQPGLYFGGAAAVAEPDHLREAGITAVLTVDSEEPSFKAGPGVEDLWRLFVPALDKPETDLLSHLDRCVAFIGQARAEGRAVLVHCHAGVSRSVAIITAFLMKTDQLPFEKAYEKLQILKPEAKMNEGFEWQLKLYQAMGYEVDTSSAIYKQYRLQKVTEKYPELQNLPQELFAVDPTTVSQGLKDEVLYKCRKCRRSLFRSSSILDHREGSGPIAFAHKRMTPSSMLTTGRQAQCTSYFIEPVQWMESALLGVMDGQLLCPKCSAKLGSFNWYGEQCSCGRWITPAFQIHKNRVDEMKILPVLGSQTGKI
UniProt Q9UQE7: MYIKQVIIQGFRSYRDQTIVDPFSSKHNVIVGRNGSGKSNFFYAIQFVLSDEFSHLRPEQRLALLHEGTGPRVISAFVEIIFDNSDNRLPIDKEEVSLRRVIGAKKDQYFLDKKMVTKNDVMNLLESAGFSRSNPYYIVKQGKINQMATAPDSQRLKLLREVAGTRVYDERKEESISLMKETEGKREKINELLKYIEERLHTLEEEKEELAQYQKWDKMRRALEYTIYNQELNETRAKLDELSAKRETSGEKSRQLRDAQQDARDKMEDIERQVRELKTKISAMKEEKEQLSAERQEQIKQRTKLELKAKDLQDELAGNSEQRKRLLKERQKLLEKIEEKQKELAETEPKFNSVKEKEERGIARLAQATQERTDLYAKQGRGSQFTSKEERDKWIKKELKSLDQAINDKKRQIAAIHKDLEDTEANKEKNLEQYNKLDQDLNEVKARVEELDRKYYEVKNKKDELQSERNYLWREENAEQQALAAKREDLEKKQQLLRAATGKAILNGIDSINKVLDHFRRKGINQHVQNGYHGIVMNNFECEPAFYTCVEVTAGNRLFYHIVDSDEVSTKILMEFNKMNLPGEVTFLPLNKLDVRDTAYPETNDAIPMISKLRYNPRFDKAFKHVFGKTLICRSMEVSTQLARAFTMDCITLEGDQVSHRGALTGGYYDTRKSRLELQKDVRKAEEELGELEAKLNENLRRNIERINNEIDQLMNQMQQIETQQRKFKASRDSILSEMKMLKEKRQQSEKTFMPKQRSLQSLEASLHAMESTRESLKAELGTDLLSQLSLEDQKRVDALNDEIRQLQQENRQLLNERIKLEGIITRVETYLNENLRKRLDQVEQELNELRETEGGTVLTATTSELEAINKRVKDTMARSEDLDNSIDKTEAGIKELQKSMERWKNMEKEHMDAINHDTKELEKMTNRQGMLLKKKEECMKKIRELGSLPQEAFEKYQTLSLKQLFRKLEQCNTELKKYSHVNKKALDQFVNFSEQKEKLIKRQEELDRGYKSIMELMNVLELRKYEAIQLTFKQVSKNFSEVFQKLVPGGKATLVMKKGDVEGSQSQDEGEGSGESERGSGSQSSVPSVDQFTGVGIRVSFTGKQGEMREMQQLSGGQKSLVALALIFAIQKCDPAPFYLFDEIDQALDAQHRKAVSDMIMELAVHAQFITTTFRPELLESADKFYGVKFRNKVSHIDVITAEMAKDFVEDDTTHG
UniProt Q9Y546: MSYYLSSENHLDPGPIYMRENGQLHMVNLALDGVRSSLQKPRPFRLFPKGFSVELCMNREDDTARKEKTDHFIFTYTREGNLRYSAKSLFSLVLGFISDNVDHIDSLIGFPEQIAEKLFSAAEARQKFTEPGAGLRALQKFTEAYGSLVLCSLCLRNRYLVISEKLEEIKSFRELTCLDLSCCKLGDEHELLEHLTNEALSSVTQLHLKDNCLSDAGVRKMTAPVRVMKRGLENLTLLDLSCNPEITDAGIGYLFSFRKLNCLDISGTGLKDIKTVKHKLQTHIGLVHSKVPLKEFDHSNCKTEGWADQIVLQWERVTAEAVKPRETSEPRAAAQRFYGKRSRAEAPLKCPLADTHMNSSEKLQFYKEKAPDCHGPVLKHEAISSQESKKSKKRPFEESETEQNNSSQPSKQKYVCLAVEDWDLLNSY
UniProt Q9Y4P8: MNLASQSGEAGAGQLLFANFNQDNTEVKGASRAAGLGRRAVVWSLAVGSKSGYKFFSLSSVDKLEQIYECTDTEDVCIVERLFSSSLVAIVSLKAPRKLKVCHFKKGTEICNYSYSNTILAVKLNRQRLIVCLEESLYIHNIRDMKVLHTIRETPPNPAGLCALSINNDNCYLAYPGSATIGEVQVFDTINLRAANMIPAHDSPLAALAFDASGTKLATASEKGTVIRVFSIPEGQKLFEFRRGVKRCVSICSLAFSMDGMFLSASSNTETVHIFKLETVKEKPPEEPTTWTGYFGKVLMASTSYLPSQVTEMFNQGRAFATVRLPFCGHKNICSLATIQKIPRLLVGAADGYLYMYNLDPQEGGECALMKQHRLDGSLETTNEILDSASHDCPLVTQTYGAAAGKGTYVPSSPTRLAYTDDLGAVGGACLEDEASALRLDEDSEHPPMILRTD
UniProt Q9Y294, whole entry: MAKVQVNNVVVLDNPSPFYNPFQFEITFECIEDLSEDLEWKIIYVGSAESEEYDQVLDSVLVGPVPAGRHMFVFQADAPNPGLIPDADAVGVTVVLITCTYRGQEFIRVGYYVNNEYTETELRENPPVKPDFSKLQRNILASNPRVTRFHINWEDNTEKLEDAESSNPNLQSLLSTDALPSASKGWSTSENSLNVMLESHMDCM
UniProt Q9Y3F4: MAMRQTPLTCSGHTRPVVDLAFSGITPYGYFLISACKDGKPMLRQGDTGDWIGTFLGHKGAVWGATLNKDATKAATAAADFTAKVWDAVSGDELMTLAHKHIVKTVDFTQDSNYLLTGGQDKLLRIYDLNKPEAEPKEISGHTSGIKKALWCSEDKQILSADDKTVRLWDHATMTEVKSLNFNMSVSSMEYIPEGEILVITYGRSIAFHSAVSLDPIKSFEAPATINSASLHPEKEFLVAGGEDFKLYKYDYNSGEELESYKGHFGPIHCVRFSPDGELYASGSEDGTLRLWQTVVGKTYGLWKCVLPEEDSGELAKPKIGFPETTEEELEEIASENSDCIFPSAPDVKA
UniProt Q9Y6N5: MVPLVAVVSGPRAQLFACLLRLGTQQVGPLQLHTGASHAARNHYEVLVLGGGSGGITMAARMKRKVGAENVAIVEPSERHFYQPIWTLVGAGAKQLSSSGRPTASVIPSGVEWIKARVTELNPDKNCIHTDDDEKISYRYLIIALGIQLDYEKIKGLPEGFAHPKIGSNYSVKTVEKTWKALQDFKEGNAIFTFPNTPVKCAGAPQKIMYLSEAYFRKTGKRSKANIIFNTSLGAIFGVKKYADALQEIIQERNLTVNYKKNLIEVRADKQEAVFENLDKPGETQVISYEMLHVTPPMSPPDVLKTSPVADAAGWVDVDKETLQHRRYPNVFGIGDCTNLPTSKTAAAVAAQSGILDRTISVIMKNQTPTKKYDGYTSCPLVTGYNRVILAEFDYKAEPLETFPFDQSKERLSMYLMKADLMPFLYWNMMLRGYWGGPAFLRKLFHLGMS
UniProt Q9UNF0: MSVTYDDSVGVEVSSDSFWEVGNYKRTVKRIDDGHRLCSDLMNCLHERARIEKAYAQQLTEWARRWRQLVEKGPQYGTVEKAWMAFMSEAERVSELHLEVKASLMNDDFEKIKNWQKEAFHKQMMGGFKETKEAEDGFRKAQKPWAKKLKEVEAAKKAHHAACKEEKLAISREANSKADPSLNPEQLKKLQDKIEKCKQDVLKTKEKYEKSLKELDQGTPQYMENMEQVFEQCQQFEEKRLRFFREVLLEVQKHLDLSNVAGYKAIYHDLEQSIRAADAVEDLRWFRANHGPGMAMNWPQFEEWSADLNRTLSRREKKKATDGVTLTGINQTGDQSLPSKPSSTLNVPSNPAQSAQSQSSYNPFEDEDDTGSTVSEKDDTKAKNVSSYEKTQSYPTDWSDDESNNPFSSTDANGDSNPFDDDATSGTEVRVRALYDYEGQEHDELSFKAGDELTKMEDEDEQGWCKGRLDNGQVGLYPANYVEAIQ
UniProt Q9UNA1: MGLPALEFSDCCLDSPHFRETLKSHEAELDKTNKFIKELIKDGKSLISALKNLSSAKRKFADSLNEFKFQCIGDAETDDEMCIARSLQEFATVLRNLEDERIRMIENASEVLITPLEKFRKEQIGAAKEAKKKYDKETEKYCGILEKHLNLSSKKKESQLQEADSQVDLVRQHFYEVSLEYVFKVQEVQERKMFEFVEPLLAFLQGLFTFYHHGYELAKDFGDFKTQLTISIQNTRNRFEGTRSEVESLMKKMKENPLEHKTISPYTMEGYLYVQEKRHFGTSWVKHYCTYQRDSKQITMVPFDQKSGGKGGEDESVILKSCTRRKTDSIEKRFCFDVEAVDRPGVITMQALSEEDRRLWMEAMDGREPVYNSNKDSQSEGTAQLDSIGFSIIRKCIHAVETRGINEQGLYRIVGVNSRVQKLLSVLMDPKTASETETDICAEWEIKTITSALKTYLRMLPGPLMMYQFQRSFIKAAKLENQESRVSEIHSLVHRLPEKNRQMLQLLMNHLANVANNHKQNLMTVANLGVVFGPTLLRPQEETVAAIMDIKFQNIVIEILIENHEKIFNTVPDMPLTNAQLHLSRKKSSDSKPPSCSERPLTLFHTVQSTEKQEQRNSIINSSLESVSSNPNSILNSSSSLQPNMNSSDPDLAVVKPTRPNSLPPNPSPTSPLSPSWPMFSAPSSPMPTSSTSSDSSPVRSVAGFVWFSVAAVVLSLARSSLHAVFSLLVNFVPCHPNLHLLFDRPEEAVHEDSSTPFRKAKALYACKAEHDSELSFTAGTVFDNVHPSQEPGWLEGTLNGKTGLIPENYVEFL
UniProt Q9Y6V7: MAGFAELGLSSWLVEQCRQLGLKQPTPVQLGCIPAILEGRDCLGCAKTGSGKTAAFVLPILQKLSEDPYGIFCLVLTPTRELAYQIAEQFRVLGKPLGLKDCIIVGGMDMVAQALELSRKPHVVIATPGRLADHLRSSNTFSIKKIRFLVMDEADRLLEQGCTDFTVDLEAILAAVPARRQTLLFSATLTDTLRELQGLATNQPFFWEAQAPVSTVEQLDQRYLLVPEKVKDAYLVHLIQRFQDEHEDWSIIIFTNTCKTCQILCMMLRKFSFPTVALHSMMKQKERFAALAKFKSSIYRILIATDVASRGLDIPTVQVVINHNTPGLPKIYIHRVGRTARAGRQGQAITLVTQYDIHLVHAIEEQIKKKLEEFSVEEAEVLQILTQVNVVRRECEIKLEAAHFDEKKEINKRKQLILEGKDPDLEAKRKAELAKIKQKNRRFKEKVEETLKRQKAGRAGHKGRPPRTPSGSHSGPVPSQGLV
UniProt Q9Y5Q9: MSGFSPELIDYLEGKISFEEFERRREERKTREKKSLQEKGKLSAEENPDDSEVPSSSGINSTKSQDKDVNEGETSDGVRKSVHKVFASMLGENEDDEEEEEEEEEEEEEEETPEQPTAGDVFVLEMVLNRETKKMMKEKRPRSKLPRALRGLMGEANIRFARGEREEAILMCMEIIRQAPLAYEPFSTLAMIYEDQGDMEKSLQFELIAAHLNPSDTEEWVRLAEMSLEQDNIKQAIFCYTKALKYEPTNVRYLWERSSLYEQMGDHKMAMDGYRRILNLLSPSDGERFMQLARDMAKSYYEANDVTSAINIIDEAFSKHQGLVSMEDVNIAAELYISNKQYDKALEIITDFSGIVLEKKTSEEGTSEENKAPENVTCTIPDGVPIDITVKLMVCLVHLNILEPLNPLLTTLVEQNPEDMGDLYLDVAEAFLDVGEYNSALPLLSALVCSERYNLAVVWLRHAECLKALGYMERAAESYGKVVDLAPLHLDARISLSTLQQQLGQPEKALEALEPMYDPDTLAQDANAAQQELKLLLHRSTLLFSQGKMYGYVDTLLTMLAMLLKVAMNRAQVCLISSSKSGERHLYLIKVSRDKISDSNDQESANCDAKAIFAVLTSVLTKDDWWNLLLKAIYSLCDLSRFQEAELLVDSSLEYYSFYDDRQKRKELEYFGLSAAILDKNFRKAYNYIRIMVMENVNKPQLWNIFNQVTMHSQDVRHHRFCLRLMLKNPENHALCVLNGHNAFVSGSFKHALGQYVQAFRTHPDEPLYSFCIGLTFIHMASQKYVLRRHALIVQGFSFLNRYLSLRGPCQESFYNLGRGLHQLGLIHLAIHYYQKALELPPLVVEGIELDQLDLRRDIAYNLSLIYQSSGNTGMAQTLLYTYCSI

Target	NP40-soluble protein abundance (concentration: 0.1mM)	NP40-soluble protein abundance (concentration: 0.5mM)	NP40-soluble protein abundance (concentration: 1mM)	NP40-soluble protein abundance (concentration: 2mM)	NP40-soluble protein abundance (concentration: 4mM)	NP40-soluble protein abundance (concentration: 6mM)	NP40-soluble protein abundance (concentration: 8mM)	NP40-soluble protein abundance (concentration: 10mM)
MINPP1 (UniProt Q9UNW1)	0.976 ± 0.094	0.92 ± 0.058	0.929 ± 0.088	0.934 ± 0.071	0.923 ± 0.074	0.887 ± 0.071	0.882 ± 0.082	0.866 ± 0.041
UniProt Q9Y6G5 and related entries	1.04 ± 0.066	1.03 ± 0.044	1.07 ± 0.076	1.08 ± 0.1	1.09 ± 0.14	1.09 ± 0.1	1.07 ± 0.084	1.09 ± 0.17
GIT1 (UniProt Q9Y2X7)	1.01 ± 0.023	1 ± 0.015	1.03 ± 0.021	1.01 ± 0.029	1.05 ± 0.021	1.02 ± 0.016	1.05 ± 0.014	1.02 ± 0.041
DUSP12 (UniProt Q9UNI6)	1.07 ± 0.074	1.04 ± 0.091	0.956 ± 0.085	0.959 ± 0.1	0.965 ± 0.06	0.905 ± 0.12	0.93 ± 0.029	0.953 ± 0.017
ENPP4 (UniProt Q9Y6X5)	0.933 ± 0.085	0.899 ± 0.061	0.976 ± 0.076	0.976 ± 0.13	0.964 ± 0.098	0.979 ± 0.11	0.917 ± 0.1	0.951 ± 0.11
MAPRE3 (UniProt Q9UPY8)	1.07 ± 0.16	0.926 ± 0.053	1.06 ± 0.1	1.03 ± 0.035	1.12 ± 0.12	1.046 ± 0.0017	1.01 ± 0.032	0.963 ± 0.036
SMC3 (UniProt Q9UQE7)	1 ± 0.025	1.04 ± 0.012	1.025 ± 0.0043	1.02 ± 0.032	1.03 ± 0.032	1.02 ± 0.043	1.06 ± 0.058	1.01 ± 0.024
LRRC42 (UniProt Q9Y546)	1.08 ± 0.13	1.08 ± 0.034	1.11 ± 0.11	1.07 ± 0.099	1.03 ± 0.052	1.05 ± 0.057	1.09 ± 0.11	1.04 ± 0.083
UniProt Q9Y4P8 and related entries	1.04 ± 0.11	1.01 ± 0.028	0.976 ± 0.11	0.961 ± 0.1	0.959 ± 0.1	0.959 ± 0.053	0.954 ± 0.042	0.896 ± 0.021
ASF1A (UniProt Q9Y294)	0.898 ± 0.14	0.957 ± 0.14	0.874 ± 0.06	0.85 ± 0.052	0.855 ± 0.061	0.845 ± 0.13	0.822 ± 0.033	0.807 ± 0.047
AP4E1 (UniProt Q9UPM8)	1.17 ± 0.024	1.08 ± 0.13	1.14 ± 0.062	1.1 ± 0.062	1.13 ± 0.019	1.06 ± 0.011	1.13 ± 0.025	0.989 ± 0.048
UniProt Q9UPN7	0.988 ± 0.018	0.994 ± 0.059	0.976 ± 0.019	1.01 ± 0.073	1.01 ± 0.077	0.962 ± 0.077	0.964 ± 0.034	0.986 ± 0.066
TRAF3IP3 (UniProt Q9Y228)	0.993 ± 0.082	1.01 ± 0.051	1.16 ± 0.15	1.19 ± 0.076	1.2 ± 0.1	1.22 ± 0.059	1.23 ± 0.1	1.44 ± 0.26
UniProt Q9UN36 and related entries	0.95 ± 0.081	0.947 ± 0.087	0.956 ± 0.076	0.924 ± 0.13	0.88 ± 0.12	0.894 ± 0.11	0.878 ± 0.078	0.922 ± 0.067
UniProt Q9Y3F4 and related entries	0.919 ± 0.029	0.987 ± 0.022	0.9042 ± 0.0031	0.887 ± 0.016	0.866 ± 0.018	0.927 ± 0.0095	0.892 ± 0.03	0.882 ± 0.023
ARFGEF1 (UniProt Q9Y6D6)	1.03 ± 0.061	1.01 ± 0.028	1 ± 0.031	1.01 ± 0.039	1.03 ± 0.046	0.996 ± 0.056	1 ± 0.037	1.02 ± 0.046

An excerpt of these results, as comma-separated lines.
Target,NP40-soluble protein abundance (concentration: 0.1mM),NP40-soluble protein abundance (concentration: 0.5mM),NP40-soluble protein abundance (concentration: 1mM),NP40-soluble protein abundance (concentration: 2mM),NP40-soluble protein abundance (concentration: 4mM),NP40-soluble protein abundance (concentration: 6mM),NP40-soluble protein abundance (concentration: 8mM),NP40-soluble protein abundance (concentration: 10mM)
UniProt Q9Y6G5 and related entries,1.04 ± 0.066,1.03 ± 0.044,1.07 ± 0.076,1.08 ± 0.1,1.09 ± 0.14,1.09 ± 0.1,1.07 ± 0.084,1.09 ± 0.17
DUSP12 (UniProt Q9UNI6),1.07 ± 0.074,1.04 ± 0.091,0.956 ± 0.085,0.959 ± 0.1,0.965 ± 0.06,0.905 ± 0.12,0.93 ± 0.029,0.953 ± 0.017
MAPRE3 (UniProt Q9UPY8),1.07 ± 0.16,0.926 ± 0.053,1.06 ± 0.1,1.03 ± 0.035,1.12 ± 0.12,1.046 ± 0.0017,1.01 ± 0.032,0.963 ± 0.036
SMC3 (UniProt Q9UQE7),1 ± 0.025,1.04 ± 0.012,1.025 ± 0.0043,1.02 ± 0.032,1.03 ± 0.032,1.02 ± 0.043,1.06 ± 0.058,1.01 ± 0.024
UniProt Q9Y4P8 and related entries,1.04 ± 0.11,1.01 ± 0.028,0.976 ± 0.11,0.961 ± 0.1,0.959 ± 0.1,0.959 ± 0.053,0.954 ± 0.042,0.896 ± 0.021
ASF1A (UniProt Q9Y294),0.898 ± 0.14,0.957 ± 0.14,0.874 ± 0.06,0.85 ± 0.052,0.855 ± 0.061,0.845 ± 0.13,0.822 ± 0.033,0.807 ± 0.047
AP4E1 (UniProt Q9UPM8),1.17 ± 0.024,1.08 ± 0.13,1.14 ± 0.062,1.1 ± 0.062,1.13 ± 0.019,1.06 ± 0.011,1.13 ± 0.025,0.989 ± 0.048
UniProt Q9UN36 and related entries,0.95 ± 0.081,0.947 ± 0.087,0.956 ± 0.076,0.924 ± 0.13,0.88 ± 0.12,0.894 ± 0.11,0.878 ± 0.078,0.922 ± 0.067

Following part:

Target	NP40-soluble protein abundance (concentration: 0.1mM)	NP40-soluble protein abundance (concentration: 0.5mM)	NP40-soluble protein abundance (concentration: 1mM)	NP40-soluble protein abundance (concentration: 2mM)	NP40-soluble protein abundance (concentration: 4mM)	NP40-soluble protein abundance (concentration: 6mM)	NP40-soluble protein abundance (concentration: 8mM)	NP40-soluble protein abundance (concentration: 10mM)
UniProt Q9Y6N5	1 ± 0.019	1.02 ± 0.052	0.9346 ± 0.0073	0.954 ± 0.041	0.93 ± 0.015	0.94 ± 0.027	0.898 ± 0.018	0.87 ± 0.047
UniProt Q9UNF0 and related entries	0.949 ± 0.053	0.958 ± 0.055	0.908 ± 0.027	0.881 ± 0.053	0.869 ± 0.053	0.881 ± 0.043	0.905 ± 0.021	0.91 ± 0.071
UniProt Q9Y4B5 and related entries	1.04 ± 0.15	1.02 ± 0.0067	1.11 ± 0.11	1.07 ± 0.03	1.109 ± 0.0064	1.09 ± 0.037	1.08 ± 0.076	1.1 ± 0.093
UniProt Q9Y4B6 and related entries	1.08 ± 0.11	1.08 ± 0.12	1.15 ± 0.12	1.17 ± 0.11	1.2 ± 0.15	1.2 ± 0.2	1.22 ± 0.21	1.17 ± 0.21
SLC5A6 (UniProt Q9Y289)	1.04 ± 0.056	1.1 ± 0.067	1.09 ± 0.07	1.03 ± 0.022	1.03 ± 0.052	0.948 ± 0.057	1.03 ± 0.042	1.01 ± 0.051
UniProt Q9Y2X0-2|Q9Y2X0-3|Q9Y2X0	1.09 ± 0.2	1.07 ± 0.21	1.04 ± 0.17	1.16 ± 0.28	1.08 ± 0.21	1.11 ± 0.16	1.12 ± 0.18	1.04 ± 0.19
PLAA (UniProt Q9Y263)	1 ± 0.031	1.02 ± 0.037	0.949 ± 0.03	0.956 ± 0.053	0.925 ± 0.061	0.93 ± 0.054	0.918 ± 0.041	0.88 ± 0.056
UniProt Q9UNA1 and related entries	1.11 ± 0.075	1.12 ± 0.18	1.06 ± 0.081	1.09 ± 0.11	1.03 ± 0.088	1.07 ± 0.16	1.05 ± 0.089	0.978 ± 0.03
NUBP2 (UniProt Q9Y5Y2)	0.986 ± 0.013	0.971 ± 0.039	0.945 ± 0.087	0.963 ± 0.043	0.973 ± 0.031	0.906 ± 0.041	0.908 ± 0.053	0.916 ± 0.069
TLN1 (UniProt Q9Y490)	0.951 ± 0.085	0.957 ± 0.077	0.961 ± 0.092	0.921 ± 0.096	0.918 ± 0.085	0.926 ± 0.079	0.949 ± 0.082	0.928 ± 0.093
DDX49 (UniProt Q9Y6V7)	1.02 ± 0.056	1.01 ± 0.047	1.03 ± 0.026	1.05 ± 0.072	1.12 ± 0.037	1.19 ± 0.022	1.26 ± 0.076	1.21 ± 0.077
WBP11 (UniProt Q9Y2W2)	1.02 ± 0.025	0.993 ± 0.025	1.06 ± 0.061	1.05 ± 0.077	1.06 ± 0.09	1.1 ± 0.085	1.17 ± 0.064	1.18 ± 0.082
GTF3C3 (UniProt Q9Y5Q9)	1.02 ± 0.038	1.09 ± 0.033	1.01 ± 0.038	1.06 ± 0.02	1.01 ± 0.029	1.04 ± 0.017	1.05 ± 0.057	1 ± 0.029
UniProt Q9UP83 and related entries	0.99 ± 0.069	1.05 ± 0.045	1.004 ± 0.0091	1.06 ± 0.03	1.02 ± 0.039	1.06 ± 0.079	1.04 ± 0.098	1.07 ± 0.08
C19orf53 (UniProt Q9UNZ5)	1.03 ± 0.15	0.97 ± 0.16	1.05 ± 0.19	1.08 ± 0.26	1.15 ± 0.27	1.38 ± 0.48	1.38 ± 0.27	1.61 ± 0.21
POLR3K (UniProt Q9Y2Y1)	0.875 ± 0.076	0.949 ± 0.082	1.05 ± 0.22	0.915 ± 0.034	0.9123 ± 0.0052	0.959 ± 0.061	0.979 ± 0.12	0.808 ± 0.051

— the supplement of paper PMC6411743
